Laboratory results as given in PubChem BioAssay AID328 (DTP/NCI, 2004).
The list is a part of this screen's results and no random one: it gathers tests that were run many times, whatever their T/C, doses with no T/C, and many T/C values between a quarter and a half above the control. Further doses and runs are listed elsewhere. T/C is the treated group as % of the vehicle group. Some doses have a count of surviving animals in place of a T/C: the source holds a T/C of zero for them, seemingly a mark for toxic or unscored doses. Some survivor counts are full or nearly so, which does not show that the dose was tolerated: survival well below the control is almost never listed, so the zero probably covers shortened survival too. Survivors were counted at the toxicity check, usually on the fifth day, unless a day is given; later deaths do not show. Schedules are NCI's codes, read here as Q, the interval in days (D) or hours (H), X, the number of doses. Where survival is the endpoint, this PubChem deposit counts one and a half times the control or more as active, and values a quarter to a half above the control carry no call in these data; other NCI protocols may use other cut-offs. Marks such as (2×) say how often a value occurs here. Some entries were tested several times; their values stand side by side, smallest first. Some T/C values are followed by the survivors on the day toxicity was checked, most often the fifth; without a count, all were alive then.

System: BDF1 mice, P388 leukemia ip, median survival T/C
Test: NCI In Vivo Anticancer Drug Screen. Data for tumor model P388 Leukemia (intraperitoneal) in B6D2F1 (BDF1) mice
Conditions: T/C endpoint: median survival time, higher T/C = longer survival
Summary of the method: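 Antitumour effect was judged in vivo: survival in drug-treated mice, normalised to that of vehicle-dosed controls, gives the reported T/C.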

[1] = dose: 100.0 mg/kg/injection, schedule: Q01DX009 (ip), vehicle: saline with Tween-80
[2] = dose: 400.0 mg/kg/injection, schedule: Q01DX009 (ip), vehicle: saline with Tween-80
[3] = dose: 100.0 mg/kg/injection, schedule: Q04DX003 (ip), vehicle: saline
[4] = dose: 200.0 mg/kg/injection, schedule: Q04DX003 (ip), vehicle: saline
[5] = dose: 400.0 mg/kg/injection, schedule: Q04DX003 (ip), vehicle: saline
[6] = dose: 12.0 mg/kg/injection, schedule: Q01DX009 (ip), vehicle: saline
[7] = dose: 50.0 mg/kg/injection, schedule: Q01DX009 (ip), vehicle: water
[8] = dose: 12.5 mg/kg/injection, schedule: Q01DX009 (ip), vehicle: water
[9] = dose: 100.0 mg/kg/injection, schedule: Q01DX009 (ip), vehicle: water
[10] = dose: 200.0 mg/kg/injection, schedule: Q01DX009 (ip), vehicle: water
[11] = dose: 100.0 mg/kg/injection, schedule: Q01DX009 (ip), vehicle: saline
[12] = dose: 200.0 mg/kg/injection, schedule: Q01DX009 (ip), vehicle: saline
[13] = dose: 200.0 mg/kg/injection, schedule: Q04DX003 (ip), vehicle: saline with Tween-80
[14] = dose: 400.0 mg/kg/injection, schedule: Q04DX003 (ip), vehicle: saline with Tween-80
[15] = dose: 25.0 mg/kg/injection, schedule: Q01DX009 (ip), vehicle: water

`O=C1c2cc(Cl)ccc2-c2c(Cl)cc(Cl)cc21` was tested, and the survivor count [1] was 6 of 6 and the survivor count [2] was 6 of 6.

`CN(/N=N/N(C)c1ccccc1)c1ccccc1` was tested, and the T/C [1] was 135 % of control.

For `O=C(Cl)OCCOCCOC(=O)Cl`, the survivor count [3] was 3 of 6, the survivor count [4] was 5 of 6 and the survivor count [5] was 6 of 6.

For `O=C1C(Cl)=C(Cl)C(=O)C2CC=CCC12` (centres undefined), the survivor count (dose: 12.5 mg/kg/injection, schedule: Q01DX001 (ip), vehicle: saline with Tween-80) was 1 of 6.

`NCCc1ccc(OCc2ccccc2)c(OCc2ccccc2)c1` was tested, and the T/C [6] was 140 % of control and the survivor count (dose: 50.0 mg/kg/injection, schedule: Q01DX009 (ip), vehicle: saline) was 5 of 6.

In the case of `COC(=O)C(Cc1cnc2nc(N)nc(N)c2n1)C(=O)OC`, the T/C [7] is reported as 125 % of control.

`[Cl][Pt+2]([Cl])([Cl])[Cl].c1ccc(C2CC[N-]CC2)cc1.c1ccc(C2CC[N-]CC2)cc1` was tested, and the T/C [8] was 132 % of control, the T/C [7] was 134 % of control [4 of 6 alive] and the survivor count [9] was 4 of 6. The survivor count (dose: 200.0 mg/kg/injection, schedule: Q01DX009 (ip), vehicle: Klucel (hydroxypropylcellulose) (HPC)) was 5 of 6 and the survivor count [10] was 2 of 6.

With `CCCCCCC(O)CCCCCC` the survivor count (dose: 400.0 mg/kg/injection, schedule: Q01DX009 (ip), vehicle: other) was 3 of 6.

With `NC(=O)c1c(Br)n(C2OC(CO)C(O)C2O)c2ncnc(N)c12` (centres undefined) the T/C [11] was 137 % of control and the T/C [12] was 133 % of control.

With `CC(=O)N(C)Nc1ccccc1` the survivor count [13] was 5 of 6 and the survivor count [14] was 3 of 6.

For `Nc1c(C(=O)O)ccc2c1C(=O)c1ccccc1C2=O`, the T/C (dose: 44.0 mg/kg/injection, schedule: Q04DX003 (ip), vehicle: Klucel (hydroxypropylcellulose) (HPC)) was 125 % of control and the survivor count (dose: 200.0 mg/kg/injection, schedule: Q01DX009 (ip), vehicle: gum acacia) was 0 of 6.

In the case of `C1CCNCC1.O=C([CH-]C(=O)C(F)(F)F)c1ccc2c(c1)C(=O)c1ccccc1-2.O=C([CH-]C(=O)C(F)(F)F)c1ccc2c(c1)C(=O)c1ccccc1-2.O=C([CH-]C(=O)C(F)(F)F)c1ccc2c(c1)C(=O)c1ccccc1-2.O=C([CH-]C(=O)C(F)(F)F)c1ccc2c(c1)C(=O)c1ccccc1-2.[Eu+3]`, the survivor count (dose: 50.0 mg/kg/injection, schedule: Q01DX009 (ip), vehicle: Klucel (hydroxypropylcellulose) (HPC)) is reported as 6 of 6.

`CC1=CC23C(=O)[C@@H](C=C(COC(=O)c4ccccc4)[C@@H](O)[C@]2(O)[C@H]1OC(=O)c1ccccc1)[C@H]1[C@@H](C[C@H]3C)C1(C)C` was tested, and the T/C (dose: 130.0 micrograms/kg/injection, schedule: Q01DX009 (ip), vehicle: saline + alcohol) was 137 % of control (2×), the T/C (dose: 216.0 micrograms/kg/injection, schedule: Q01DX009 (ip), vehicle: saline + alcohol) was 140 % of control (2×) and the T/C (dose: 360.0 micrograms/kg/injection, schedule: Q01DX009 (ip), vehicle: saline + alcohol) was 147 % of control (2×). The T/C (dose: 400.0 micrograms/kg/injection, schedule: Q01DX009 (ip), vehicle: saline with Tween-80) was 129 % of control.

For `O=C1C=CC(=O)N1c1ccc(-c2nc3ccccc3o2)cc1`, the survivor count (dose: 200.0 mg/kg/injection, schedule: Q01DX005 (ip), vehicle: saline with Tween-80) was 0 of 5.

In the case of `COC(=O)c1cc([N+](=O)[O-])c(Cl)c([N+](=O)[O-])c1`, the survivor count (dose: 100.0 mg/kg/injection, schedule: Q04DX003 (ip), vehicle: Klucel (hydroxypropylcellulose) (HPC)) is reported as 3 of 6.

For `CN1CCN(c2nc3cccnc3s2)CC1`, the survivor count [4] was 2 of 6 and the survivor count [5] was 0 of 6.

With `O=C(c1ccc(Cl)cc1)n1c(Cl)c(/C=N\Nc2cccc([N+](=O)[O-])c2)c2ccccc21` the survivor count (dose: 100.0 mg/kg/injection, schedule: Q01DX001 (ip), vehicle: Klucel (hydroxypropylcellulose) (HPC)) was 6 of 6 and the survivor count (dose: 200.0 mg/kg/injection, schedule: Q01DX001 (ip), vehicle: Klucel (hydroxypropylcellulose) (HPC)) was 6 of 6.

For `CC(C)=NNC(=O)C1CCN1C(c1ccccc1)c1ccccc1` (centres undefined), the survivor count (dose: 200.0 mg/kg/injection, schedule: Q01DX001 (ip), vehicle: saline with Tween-80) was 0 of 6.

`C=CCNC(=O)C(Br)(CC)CC` was tested, and the survivor count [11] was 6 of 6 and the survivor count [12] was 6 of 6.

With `Nc1nc2c(ncn2C2OC(CO)C(O)C2N)c(=O)[nH]1` (centres undefined) the T/C [13] was 126 % of control.

In the case of `O=C1CC(c2ccc(O)cc2)CC(=O)C1C(C1CC=CCC1)N(CCCl)CCCl` (centres undefined), the T/C (dose: 75.0 mg/kg/injection, schedule: Q04DX003 (ip), vehicle: Klucel (hydroxypropylcellulose) (HPC)) is reported as 127 % of control, the T/C (dose: 115.0 mg/kg/injection, schedule: Q04DX003 (ip), vehicle: Klucel (hydroxypropylcellulose) (HPC)) is reported as 131 % of control and the T/C (dose: 177.0 mg/kg/injection, schedule: Q04DX003 (ip), vehicle: Klucel (hydroxypropylcellulose) (HPC)) is reported as 125 % of control (2×). The T/C (dose: 200.0 mg/kg/injection, schedule: Q04DX003 (ip), vehicle: Klucel (hydroxypropylcellulose) (HPC)) was 127 % of control and the T/C (dose: 266.0 mg/kg/injection, schedule: Q04DX003 (ip), vehicle: Klucel (hydroxypropylcellulose) (HPC)) was 133 and 140 % of control.

For `C[C@]12C=CC(=O)C=C1CC[C@@H]1[C@@H]2CC[C@]2(C)OC(=O)CC[C@@H]12`, the survivor count [14] was 2 of 6.

`O=P(N1CC1)(N1CC1)N1CCc2ccccc21` was tested, and the T/C [11] was 125 % of control, the T/C [3] was 143 % of control and the survivor count [12] was 6 of 6. The survivor count [5] was 6 of 6.

For `CC[C@H]1CN2CCc3cc(OC)c(OC)cc3[C@@H]2C[C@@H]1C[C@@H]1c2cc(OC)c(OC)cc2CCN1CCN(CCCl)CCCl`, the T/C (dose: 7.2 mg/kg/injection, schedule: Q04DX003 (ip), vehicle: saline with Tween-80) was 147 % of control, the T/C (dose: 18.0 mg/kg/injection, schedule: Q04DX003 (ip), vehicle: saline with Tween-80) was 137 % of control and the survivor count (dose: 30.0 mg/kg/injection, schedule: Q04DX003 (ip), vehicle: saline with Tween-80) was 4 of 8.

With `Nc1nc(N)c2cc(N3CCCC3c3ccc(Cl)c(Cl)c3)ccc2n1` (centres undefined) the survivor count [8] was 4 of 6 and the survivor count [15] was 0 of 6.

For `C/C(=N\[N+](C)(C)C)c1cccc(C)n1`, the T/C (dose: 50.0 mg/kg/injection, schedule: Q04DX003 (ip), vehicle: saline) was 133 % of control and the survivor count [11] was 5 of 6.

For `CCCNC1=C(N2CC2)C(=O)C(NCCC)=C(N2CC2)C1=O`, the T/C (dose: 0.75 mg/kg/injection, schedule: Q01DX009 (ip), vehicle: saline) was 128 and 146 % of control, the T/C (dose: 1.5 mg/kg/injection, schedule: Q01DX009 (ip), vehicle: saline) was 149 % of control and the survivor count [6] was 6 of 6.

`Cc1ccc(C(=O)O)cc1S(=O)(=O)F` was tested, and the T/C [2] was 126 % of control [5 of 6 alive] and the survivor count (dose: 600.0 mg/kg/injection, schedule: Q01DX009 (ip), vehicle: saline with Tween-80) was 3 of 6.

With `CCOC(=O)C(Cc1ccc(N(CCCl)CCCl)cc1)NC(=O)CNC(C)=O` (centres undefined) the survivor count (dose: 75.0 mg/kg/injection, schedule: Q04DX003 (ip), vehicle: saline with Tween-80) was 5 of 6.

With `C[C@H]1C[C@@H]2[C@H]([C@@H](O)C[C@@]3(C)[C@H]2CC[C@]3(O)C(=O)CO)[C@@]2(C)C=CC(=O)C=C12` the T/C [1] was 127 % of control.

With `CCN(Cc1ccc(Cl)c(Cl)c1)c1ccc2nc(N)nc(N)c2c1C` the T/C (dose: 3.12 mg/kg/injection, schedule: Q01DX009 (ip), vehicle: water) was 125 % of control, the survivor count [15] was 5 of 6 and the T/C (dose: 25.0 mg/kg/injection, schedule: Q04DX003 (ip), vehicle: water) was 125 and 136 % of control. For the same molecule, the survivor count [7] was 4 of 6, the survivor count [9] was 1 of 6 and the survivor count [10] was 2 of 6. The survivor count (dose: 200.0 mg/kg/injection, schedule: Q04DX003 (ip), vehicle: water) was 5 of 6 and the survivor count (dose: 400.0 mg/kg/injection, schedule: Q01DX009 (ip), vehicle: water) was 0 of 6.
